Experimental findings from patent publication US20240239881A1 are described below.

Protein sequences, listed by entry. Tags and fused reporters are not part of them. Lines headed by an entry give the natural chain unless they say otherwise; changes in a name come on top.
UniProt O15123: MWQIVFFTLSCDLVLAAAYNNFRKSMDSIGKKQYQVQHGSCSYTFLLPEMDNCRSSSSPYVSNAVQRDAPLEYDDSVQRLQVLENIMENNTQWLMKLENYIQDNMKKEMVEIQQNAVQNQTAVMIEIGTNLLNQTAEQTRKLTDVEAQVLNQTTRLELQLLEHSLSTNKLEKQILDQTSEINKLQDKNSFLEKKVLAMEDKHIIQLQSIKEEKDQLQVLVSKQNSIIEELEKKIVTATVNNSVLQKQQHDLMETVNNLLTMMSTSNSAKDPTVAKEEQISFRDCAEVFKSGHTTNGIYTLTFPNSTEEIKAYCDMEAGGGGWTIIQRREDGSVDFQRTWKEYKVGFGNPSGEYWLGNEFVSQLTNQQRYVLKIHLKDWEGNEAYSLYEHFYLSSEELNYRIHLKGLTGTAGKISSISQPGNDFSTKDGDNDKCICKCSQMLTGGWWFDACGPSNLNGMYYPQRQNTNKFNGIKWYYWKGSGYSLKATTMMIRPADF

Results are given in words; binding and its absence hold for the method and conditions named. Some entries that bind do so weakly or less than the wild type.

The experiment concerns the target recombinant biotinylated hAngiopoietin-2 protein (R&D, Cat. No.: BT623B/CF) (human) (UniProt O15123). Nature of the experiment: ELISA, biotin Ang2 on coated streptavidin, anti-human IgG-HRP (FIG. 1B). (In an ELISA, binding on a coated surface is turned into a signal by an enzyme label.)

B1: chimeric antibody 81H10 (antibody, human IgG1, kappa, V domains shown)
VH: EVKLEESGGGLVQPGGSMKLSCVASGFTFSNYWMNWVRQSPEKGLEWVAEIRLKSNNYATHYAESVKGRFTISRDVSKSSVYLQMNNLRTEDTGIYYCTDTAPFAYWGQGTLVTVSA
VL: DIVMTQSHKFMSTSVGDRVSITCKASQDVGTDVAWYQQKPGQSPKLLIYWASTRHTGVPDRFTGSGSGTDFTLTISNVQSEDLSDYFCQQYSSYPLTFGGGTKLEIKR
In the case of B1, the binding entry was “binds”.

B2: humanized antibody hz81H10.4 (antibody, human IgG1, kappa, V domains shown)
VH: EVQLVESGGGLVKPGGSLRLSCAASGFTFSNYWMNWVRQAPGKGLEWVAEIRLKSNNYATHYAESVKGRFTISRDVSKNTVYLQMNSLKTEDTAVYYCTDTAPFAYWGQGTLVTVSS
VL: DIQMTQSPSSLSASVGDRVTITCKASQDVGTDVAWYQQKPGKAPKLLIYWASTRHTGVPSRFSGSGSGTDFTLTISSLQPEDFATYYCQQYSSYPLTFGGGTKVEIKR
For the molecule B2, the binding entry is reported as “binds”.
